Source: PubChem BioAssay AID493014 (National Center for Advancing Translational Sciences (NCATS), 2011)
Some of the results follow. The main result of the screen is listed elsewhere. These columns were measured beside it and carry no call. The list favours compounds with an active or inconclusive main result. Words in brackets tell the shape of the fitted curve; partial curves, single points and poor fits give uncertain potencies.

Test: qHTS Assay to Find Inhibitors of Chronic Active B-Cell Receptor Signaling
Conditions: ABC-DLBCL IkBa-CBG/CBR reporter, luminescence ratio (green luciferase fused to IkBa over red control in TMD8 lymphoma cells), 4 h
Outline: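 Doxycycline induced both beetle luciferases in TMD8 lymphoma cells; IKK-driven degradation limits the IkappaBalpha-fused green signal, while red luminescence normalises for cell number and nonspecific effects. Compounds tested up to 46 uM, 4 hrs.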

[1] = measured here: CBR red luminescence, cell number
[2] = measured here: IkBa-CBG green luminescence

SMILES	AC50 [1]	AC50 [2]
Cc1ccc(/C=C/C(=O)OCC(=O)Nc2cccnc2Cl)o1	29.1 µM [rising, single point]	
COc1ccccc1C(=O)NC(C)C(c1cccs1)N1CCOCC1 (configuration not stated)	14.6 µM [rising, partial curve, poor fit]	
COC(=O)c1c(NC(=O)CSc2nc(-c3ccco3)cc(C(F)(F)F)n2)sc2c1CCCC2	0.259 µM [rising, full curve, poor fit]	
Cc1ccc(NC(=O)C(=O)NNC(=O)c2cccs2)cc1	10 µM [falling, partial curve]	
Cc1ccc2cc(C)c(N3CCN(c4ccccn4)CC3)nc2c1	0.116 µM [rising, full curve, poor fit]	
O=C(NCc1csc(-c2ccccc2)n1)c1ccco1	28.2 µM [falling, single point]	
Cc1ccc(S(=O)(=O)Nc2ccc(N(C)S(=O)(=O)c3ccc(C)cc3)cc2)cc1	22.4 µM [rising, partial curve, poor fit]	
O=C(O)c1ccc(/C=C/C(=O)c2ccc3c(c2)OCCCO3)cc1	10 µM [falling, partial curve]	
CC1CCc2c(nc3ncnn3c2N2CC(C)OC(C)C2)C1 (configuration not stated)	11.2 µM [falling, partial curve]	
COC(=O)c1ccc(C(=O)OC)c(NC(=O)COC(=O)C2CCCCC2)c1	6.51 µM [falling, single point]	
Cc1cccc(/C=N\NC(=O)c2sccc2-n2cccc2)c1	1.58 µM [rising, partial curve]	
O=C(NC(=S)Nc1ccc(Cl)c(C(=O)O)c1)c1ccco1	1.41 µM [falling, full curve]	
CSc1ccccc1C(=O)Nc1ncc(C)s1	29.1 µM [falling, single point]	
CC(=O)c1ccc2noc(-c3cccc(C)c3)c2c1	11.2 µM [falling, partial curve, poor fit]	
CN1CCN(c2ccc(Cl)cc2NC(=O)/C=C/c2ccc(F)cc2)CC1	35.5 µM [falling, single point]	
Cc1noc(C)c1S(=O)(=O)N(C)C[C@H]1Oc2c(NC(=O)Nc3ccc4c(c3)OCO4)cccc2C(=O)N([C@H](C)CO)C[C@@H]1C	2.31 µM [rising, full curve, poor fit]	
CN1CCN(c2nc3nonc3nc2N2CCN(C)CC2)CC1	20 µM [falling, single point]	
Cc1ccc(-c2nc3ccccc3[nH]2)s1	29.1 µM [falling, single point]	
CCCCSc1nnc(CNC(=O)C23CC4CC(CC(C4)C2)C3)n1Cc1ccccc1	13 µM [falling, single point]	20.6 µM [rising, partial curve, poor fit]
Cc1ccc(C)c(Cn2nnc3c(=O)[nH]c(C4CCN(S(=O)(=O)c5ccc(S(=O)(=O)NC6CC6)cc5)CC4)nc32)c1	7.08 µM [falling, full curve]	
O=C(O)[C@@H]1CCCN1C(=O)CCc1c[nH]c2ccccc12	20 µM [rising, single point]	
CCCn1ncc(CN2CCC(C(=O)Nc3cccc(-c4cccc(F)c4)c3)CC2)c1C	35.5 µM [falling, single point]	

SMILES	AC50 [1]	AC50 [2]
Cc1ccccc1N(CC(=O)NCc1ccccc1)C(=O)CCC(=O)Nc1nccs1	35.5 µM [falling, partial curve, poor fit]	
Cc1cccc(N2C(=O)C(Oc3ccc(Cl)cc3Cl)C2C=O)c1C (configuration not stated)	29.1 µM [rising, single point]	
CCc1c(C)nc(SC/C=C/c2ccccc2)[nH]c1=O	6.31 µM [rising, partial curve]	
NNC(=O)CS(=O)(=O)CS(=O)(=O)CC(=O)NN	35.5 µM [rising, single point]	
Cn1c2ccccc2c2ncn(Cc3ccco3)c(=O)c21	22.4 µM [falling, single point]	
CC1(C(=O)Nc2cccc(C(F)(F)F)c2)CO1 (configuration not stated)	35.5 µM [falling, single point]	
COc1ccc2nc(NC(=O)Cc3ccc(OC)c(S(=O)(=O)N4CCOCC4)c3)sc2c1	18.4 µM [falling, partial curve, poor fit]	
Cc1c(C(=O)N/N=C/c2cccnc2)sc(=S)n1C	20.6 µM [falling, single point]	
CN(C)CCCN(C(=O)CCOc1ccccc1)c1nc2ccc(F)cc2s1	3.16 µM [falling, full curve]	
CCOC(=O)Cc1csc(NC(=O)/C=C/c2ccccc2Cl)n1	4.47 µM [falling, partial curve]	
C=CCn1c(SCC(=O)Nc2sccc2C(N)=O)nc2ccc(Cl)cc2c1=O	5.01 µM [falling, full curve, poor fit]	
CCC(C(=O)NC(C)CCc1ccccc1)n1nc(C)n2c(cc3occc32)c1=O (configuration not stated)	22.4 µM [falling, single point]	
S=C(c1ccc(-c2cccc(Cl)c2)o1)N1CCCCC1	10 µM [rising, partial curve, poor fit]	
CCc1nc2ccc(C(=O)N3CCN(c4ccc([N+](=O)[O-])cc4)CC3)cc2nc1CC	14.1 µM [falling, single point]	
CCOc1ccccc1NC(=O)COc1ccc2c(c1)OCO2	3.16 µM [falling, full curve, poor fit]	
CN1CCN(Cc2nc3ccccc3c(=O)n2Cc2nc(-c3ccc([N+](=O)[O-])cc3)cs2)CC1	32.6 µM [falling, single point]	29.1 µM [rising, partial curve, poor fit]
CCCn1c(C)cc(/C=C(\C#N)C(=O)OCC(=O)NC(=O)NC(C)(C)C)c1C	3.66 µM [falling, partial curve, poor fit]	
CSc1nncc(/C(C)=N\Nc2ccccc2)n1	0.355 µM [rising, full curve, poor fit]	
O=C(CSc1nc2ccccc2s1)NNC(=S)Nc1ccc(Br)cc1	11.2 µM [rising, partial curve, poor fit]	
NNC(=O)c1cccc(COc2ccc(Br)cc2)c1	23.1 µM [falling, single point]	
CCOC(=O)C1CCN(C(=O)COc2ccc3c(C)cc(=O)oc3c2)CC1	18.4 µM [falling, partial curve]	
COC(=O)CCc1sc(Nc2ccc(Br)cc2)nc1-c1ccc(OC)cc1	29.1 µM [rising, partial curve, poor fit]	

SMILES	AC50 [1]	AC50 [2]
CCn1cnc2sc(-c3ccccc3)cc2c1=O	29.1 µM [falling, single point]	
COc1ccc(C[C@H]2CN3C(=NC[C@@H]3C(C)C)N2CCNC(=O)CCC2CCCCC2)cc1	11.2 µM [falling, partial curve]	
Cc1ccc(S(=O)(=O)N2CCN(C(=O)CSc3nccn3C)CC2)cc1	5.62 µM [falling, single point]	
CCCCn1c(=O)nc2n(-c3ccc(C)cc3)c3ccccc3cc-2c1=O	25.9 µM [rising, partial curve, poor fit]	
COc1ccc(/C=C(\NC(=O)c2ccco2)C(=O)NCc2ccco2)cc1	1.58 µM [falling, partial curve, poor fit]	
CCn1c2ccccc2c2cc(/C=N/n3c(C)nnc3C)ccc21		4.61 µM [falling, partial curve, poor fit]
CCN(C(=S)Nc1cccc(C)c1)c1ccccc1	9.2 µM [rising, single point]	
Cn1cccc1CNC(=O)Nc1ccc(Cl)cc1	28.2 µM [falling, single point]	
Cn1c(N)c(C(=O)COC(=O)C2CCN(S(=O)(=O)c3cccs3)CC2)c(=O)n(C)c1=O	14.1 µM [falling, partial curve, poor fit]	
CC(C)c1ccccc1NC(=O)c1cnccn1	2.59 µM [rising, partial curve, poor fit]	
C/C(=N\Nc1nnc(-c2ccccc2)c(-c2ccccc2)n1)c1cccc([N+](=O)[O-])c1	1.26 µM [rising, partial curve]	
O=C(CNC(=O)c1ccc(F)cc1)c1ccccc1	10 µM [falling, partial curve]	
COc1ccc2cc([C@H](C)C(=O)O)ccc2c1	23.1 µM [rising, single point]	
COc1ccc2[nH]c3c(Cl)ncnc3c2c1	2.91 µM [falling, full curve]	
Cc1ccc(CS(=O)(=O)c2ccc(C(=O)N3CCN(c4ccccn4)CC3)cc2[N+](=O)[O-])cc1	35.5 µM [falling, single point]	
C=CCn1c(O)c(N=O)c2cc(C)ccc21	3.55 µM [falling, single point]	
O=C(COc1ccccc1)NC1=NCCS1	4.11 µM [rising, partial curve]	
COc1ccc(-n2c(N)c(C(=O)NCc3ccco3)c3nc4ccccc4nc32)c(OC)c1	32.6 µM [falling, single point]	
O=C(Nc1ccc(F)cc1)N1CCN(c2ccc(F)cc2)CC1	14.1 µM [falling, partial curve, poor fit]	
N#Cc1cccc2cccc(S(=O)(=O)N3CCOCC3)c12	11.6 µM [rising, partial curve, poor fit]	
O=C(Nc1ccc(F)cc1)N1CCn2c(nc3ccccc32)C1	18.4 µM [falling, single point]	

Some of the entries so far, with each value named.
O=C(CNC(=O)c1ccc(F)cc1)c1ccccc1
  AC50 [1]: 10 µM [falling, partial curve]
COc1ccc(-n2c(N)c(C(=O)NCc3ccco3)c3nc4ccccc4nc32)c(OC)c1
  AC50 [1]: 32.6 µM [falling, single point]
O=C(Nc1ccc(F)cc1)N1CCN(c2ccc(F)cc2)CC1
  AC50 [1]: 14.1 µM [falling, partial curve, poor fit]
N#Cc1cccc2cccc(S(=O)(=O)N3CCOCC3)c12
  AC50 [1]: 11.6 µM [rising, partial curve, poor fit]
